From the supplement of paper PMC4604168 (melanoma cell lines)
The list shows a part of the results. Repeats are few or missing, and single values can be far off.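 Cells were imaged in 1,536-well plates, and nuclei stained with an antibody against cleaved PARP were counted against all DNA-stained nuclei to give the apoptosis fraction. Screening doses were chosen to leave most cells alive, and resting and induced cleaved-PARP levels differ strongly between cell lines.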

How the values were obtained:
Assay in all cases: cleaved PARP positive nuclei fraction relative to DMSO control; melanoma cells; higher = more apoptosis
Conditions in all cases: library dose: low library concentration; 72 h
[1] = test system: 501Mel
[2] = test system: A101D
[3] = test system: A2058
[4] = test system: A375
[5] = test system: C32
[6] = test system: CBRC008 (line from a melanoma biopsy)
[7] = test system: CBRC013 (line from a melanoma biopsy)
[8] = test system: CBRC014 (line from a melanoma biopsy)
[9] = test system: CBRC016 (line from a melanoma biopsy)
[10] = test system: CBRC017 (line from a melanoma biopsy)
[11] = test system: COLO792
[12] = test system: COLO800
[13] = test system: COLO829
[14] = test system: G361
[15] = test system: IPC-298
[16] = test system: IST-MEL1
[17] = test system: LB2518-MEL
[18] = test system: LOXIMVI
[19] = test system: MEL-HO

Compound	cleaved PARP positive nuclei fraction [1] [%]	cleaved PARP positive nuclei fraction [2] [%]	cleaved PARP positive nuclei fraction [3] [%]	cleaved PARP positive nuclei fraction [4] [%]	cleaved PARP positive nuclei fraction [5] [%]	cleaved PARP positive nuclei fraction [6] [%]	cleaved PARP positive nuclei fraction [7] [%]	cleaved PARP positive nuclei fraction [8] [%]	cleaved PARP positive nuclei fraction [9] [%]	cleaved PARP positive nuclei fraction [10] [%]	cleaved PARP positive nuclei fraction [11] [%]	cleaved PARP positive nuclei fraction [12] [%]	cleaved PARP positive nuclei fraction [13] [%]	cleaved PARP positive nuclei fraction [14] [%]	cleaved PARP positive nuclei fraction [15] [%]	cleaved PARP positive nuclei fraction [16] [%]	cleaved PARP positive nuclei fraction [17] [%]	cleaved PARP positive nuclei fraction [18] [%]	cleaved PARP positive nuclei fraction [19] [%]
CO[C@@H]1[C@H](N(C)C(=O)c2ccccc2)C[C@H]2O[C@]1(C)n1c3ccccc3c3c4c(c5c6ccccc6n2c5c31)C(=O)NC4 [Midostaurin] + O=C(Nc1cccc(Cl)c1)Nc1ncc(CCNc2ncnc3ccsc23)s1 [SNS314] (first compound 0.08 µM, partner dose 0.0008 µM)	218	113	72.6	202	161	157	107	158	254	175	248	234	85	101	88	70.8	114	113	47.7
C[C@@H]1CCN(C(=O)CC#N)C[C@@H]1N(C)c1ncnc2[nH]ccc12 + CN(NC(=O)CC(=O)NN(C)C(=S)c1ccccc1)C(=S)c1ccccc1 [STA4783] (first compound 1 µM, partner dose 0.006 µM)	163	51.6	98.6	2700	94.4	1870	168	550	115	168	308	238	144	158	91.2	209	294	94.3	84.7
O=C(CCCCCCC(=O)Nc1ccccc1)NO [vorinostat] + C=CCn1c(=O)c2cnc(Nc3ccc(N4CCN(C)CC4)cc3)nc2n1-c1cccc(C(C)(C)O)n1 [MK1775] (first compound 0.08 µM, partner dose 0.02 µM)	91.4	75.9	27.2	105	76.5	108	102	215	91.8	86.6	68.4	46.1	36.5	88.7	70.2	97.9	52.3	236	276
Clc1ccc(Nc2nnc(Cc3ccncc3)c3ccccc23)cc1 [vatalanib] + CO[C@@H]1[C@H](N(C)C(=O)c2ccccc2)C[C@H]2O[C@]1(C)n1c3ccccc3c3c4c(c5c6ccccc6n2c5c31)C(=O)NC4 [Midostaurin] (first compound 2 µM, partner dose 0.08 µM)	68.5	102	132	142	109	145	144	88.6	208	103	109	127	119	75.2	50.2	113	194	81.9	73.5
Nc1cccc2c1CN(C1CCC(=O)NC1=O)C2=O (stereo not drawn) [lenalidomide] + C=CCn1c(=O)c2cnc(Nc3ccc(N4CCN(C)CC4)cc3)nc2n1-c1cccc(C(C)(C)O)n1 [MK1775] (first compound 1 µM, partner dose 0.02 µM)	108	86.8	29.9	182	85.3	428	112	161	168	80.3	117	30.1	56.1	57.6	42.7	67.3	93.1	13.2	46.9
Clc1ccc(Nc2nnc(Cc3ccncc3)c3ccccc23)cc1 [vatalanib] + NCC(=O)Nc1ccc(-n2nc(C(F)(F)F)cc2-c2ccc3c(ccc4ccccc43)c2)cc1 [OSU03012] (first compound 2 µM, partner dose 1 µM)	478	83	117	6750	121	63.6	145	105	182	113	145	55.9	76.2	86.6	130	32.4	110	40.7	50.1
Clc1ccc(Nc2nnc(Cc3ccncc3)c3ccccc23)cc1 [vatalanib] + Cn1cncc1[C@@](N)(c1ccc(Cl)cc1)c1ccc2c(c1)c(-c1cccc(Cl)c1)cc(=O)n2C [tipifarnib] (first compound 2 µM, partner dose 0.01 µM)	90.2	296	149	467	159	164	135	138	143	113	131	57	75.7	70.8	52.6	47.2	110	135	96.1
C#Cc1cccc(Nc2ncnc3cc(OCCOC)c(OCCOC)cc23)c1 [erlotinib] + O=C(O)c1ccc(-c2c[nH]c3ncc(-c4ccccc4)cc23)cc1C1CCCC1 [GSK650394] (first compound 0.8 µM, partner dose 0.16 µM)	75.6	43.8	119	30.3	52.5	910	126	158	98	143	152	86.5	150	60.2	97.6	67.9	174	669	52.8
CC(=O)c1c(C)c2cnc(Nc3ccc(N4CCNCC4)cn3)nc2n(C2CCCC2)c1=O [palbociclib] + Cc1ccc(NC(=O)c2cccc(N(C)C)c2)cc1NC(=O)c1ccc(O)cc1 [ZM336372] (first compound 0.04 µM, partner dose 2 µM)	132	119	52.7	272	133	263	118	105	137	72.3	126	61.3	190	55.6	77.6	95.5	138	112	62
O=C(CCCCCCC(=O)Nc1ccccc1)NO [vorinostat] + CC(C)(C)c1cnc(CSc2cnc(NC(=O)C3CCNCC3)s2)o1 [SNS-032] (first compound 0.08 µM, partner dose 0.01 µM)	91.8	43.2	237	101	257	75.1	118	84.9	141	107	156	66.2	63.1	129	180	127	53.1	253	64.8
OCCn1cc(-c2cnc3nnn(Cc4ccc5ncccc5c4)c3n2)cn1 + C[C@@H]1CCN(C(=O)CC#N)C[C@@H]1N(C)c1ncnc2[nH]ccc12 [CP690550] (first compound 1 µM, partner dose 1 µM)	385	82.8	151	15.1	31.7	37.1	152	69	61.6	93.8	140	63.1	73.9	101	44.1	89.3	22.5	16	188
CC(C)(C)c1cnc(CSc2cnc(NC(=O)C3CCNCC3)s2)o1 + Cn1cncc1[C@@](N)(c1ccc(Cl)cc1)c1ccc2c(c1)c(-c1cccc(Cl)c1)cc(=O)n2C [tipifarnib] (first compound 0.01 µM, partner dose 0.01 µM)	187	121	121	430	319	73.1	151	103	117	104	28	89.9	229	132	93.5	106	116	238	138
Clc1ccc(Nc2nnc(Cc3ccncc3)c3ccccc23)cc1 [vatalanib] + Cc1ccc(NC(=O)c2cccc(N(C)C)c2)cc1NC(=O)c1ccc(O)cc1 [ZM336372] (first compound 2 µM, partner dose 2 µM)	86.7	77.6	129	242	149	386	91.7	144	147	76.2	133	20.4	102	125	56.6	105	154	151	188
Cc1nc(Nc2ncc(C(=O)Nc3c(C)cccc3Cl)s2)cc(N2CCN(CCO)CC2)n1 [dasatanib] + Cc1cc(N2CCOCC2)cc2[nH]c(-c3c(NC[C@@H](O)c4cccc(Cl)c4)cc[nH]c3=O)nc12 [BMS536924] (first compound 0.004 µM, partner dose 0.2 µM)	104	67.6	179	125	441	318	159	104	39.9	103	180	287	60.3	125	159	390	327	66.6	116
Cn1cncc1[C@@](N)(c1ccc(Cl)cc1)c1ccc2c(c1)c(-c1cccc(Cl)c1)cc(=O)n2C [tipifarnib] + COc1cc2c(Oc3ccc4[nH]c(C)cc4c3F)ncnc2cc1OCCCN1CCCC1 [cediranib] (first compound 0.01 µM, partner dose 0.4 µM)	89.2	19.5	53.2	55.2	72	181	142	77.3	32.7	89.2	82.6	140	79.3	75.2	91.7	136	93.4	68	135
Cn1nnc2c(C(N)=O)ncn2c1=O [temozolomide] + O=C(CCCCCCC(=O)Nc1ccccc1)NO [vorinostat] (first compound 2 µM, partner dose 0.08 µM)	83.7	76.5	30.9	57.4	30.8	73.3	97	85.5	202	67	172	43.5	80.9	38.9	90.1	103	185	91.3	126
CC(C)(C)c1cnc(CSc2cnc(NC(=O)C3CCNCC3)s2)o1 + Cc1cc(N2CCOCC2)cc2[nH]c(-c3c(NC[C@@H](O)c4cccc(Cl)c4)cc[nH]c3=O)nc12 [BMS536924] (first compound 0.01 µM, partner dose 0.2 µM)	92.1	36	85.1	135	255	195	150	88.1	92.7	102	145	132	89	60.4	90.8	156	105	44.5	149

A few values from the entries so far.
Clc1ccc(Nc2nnc(Cc3ccncc3)c3ccccc23)cc1 [vatalanib] + CO[C@@H]1[C@H](N(C)C(=O)c2ccccc2)C[C@H]2O[C@]1(C)n1c3ccccc3c3c4c(c5c6ccccc6n2c5c31)C(=O)NC4 [Midostaurin] (first compound 2 µM, partner dose 0.08 µM) | cleaved PARP positive nuclei fraction [5] [%]: 109
C#Cc1cccc(Nc2ncnc3cc(OCCOC)c(OCCOC)cc23)c1 [erlotinib] + O=C(O)c1ccc(-c2c[nH]c3ncc(-c4ccccc4)cc23)cc1C1CCCC1 [GSK650394] (first compound 0.8 µM, partner dose 0.16 µM) | cleaved PARP positive nuclei fraction [12] [%]: 86.5
